From patent publication US20040265932A1 (AbbVie / Abbott, published 2004)
These are yes or no findings as the source states them, for the method shown. Some results given as binding are weak or reduced against the parent protein; the word gives no strength. Tags and fused reporters may be left off the sequences shown.

By UniProt entry, the sequences of proteins in these tests, tags left out. Where a name states a change or a piece, a line headed by the entry shows the natural chain unless it says otherwise.
UniProt Q13296: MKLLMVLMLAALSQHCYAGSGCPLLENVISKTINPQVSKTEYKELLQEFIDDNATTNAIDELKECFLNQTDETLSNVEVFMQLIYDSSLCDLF

How the values were obtained:
[1] = molecular target: Mammaglobin M/H (myc/his tagged Mammaglobin, transient transfection of HEK293 cells) (human) (UniProt Q13296); test: gel filtration (Superose 12), single peak of 56 kD
[2] = molecular target: Mammaglobin M/H (myc/his tagged Mammaglobin, transient transfection of HEK293 cells) (human) (UniProt Q13296); test: anion exchange chromatography at pH 6.0 with anti-myc dot blot
[3] = molecular target: Mammaglobin M/H (myc/his tagged Mammaglobin, transient transfection of HEK293 cells) (human) (UniProt Q13296); test: Western blots, non-reducing against reducing; complex dissociated by beta-mercaptoethanol

binding [1]: binds | binding [2]: binds | binding [3]: binds
B1: BU101 polypeptide from breast cancer tissue extract (other)
chain: EFCPALVSELLDFFFISEPLFKLSLAKFDAPPEAVAAKLGVKRCTDQMSLQKRSLIAEVLVKILKKCSV
notes: native protein in tissue extract, about 7 kD reduced
